Measurements as given in the supplement of paper PMC10032668.
The other results are listed elsewhere or left out. Only hits are listed; about a third recur on repeated control peptides.

Protein sequences, listed by entry. Tags and fused reporters are not part of them.
HIST1H1E, P10412, UniProt P10412, whole entry: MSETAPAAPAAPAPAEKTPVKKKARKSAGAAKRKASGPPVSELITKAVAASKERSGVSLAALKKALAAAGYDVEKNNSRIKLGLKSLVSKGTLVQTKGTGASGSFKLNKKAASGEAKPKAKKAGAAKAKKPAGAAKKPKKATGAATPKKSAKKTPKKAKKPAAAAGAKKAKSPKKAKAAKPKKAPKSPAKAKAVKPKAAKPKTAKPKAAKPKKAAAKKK
CKS2, P33552, UniProt P33552, whole entry: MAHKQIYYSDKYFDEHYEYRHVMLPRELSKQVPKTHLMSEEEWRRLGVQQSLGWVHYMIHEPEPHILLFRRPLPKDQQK
EIF1, P41567, UniProt P41567, whole entry: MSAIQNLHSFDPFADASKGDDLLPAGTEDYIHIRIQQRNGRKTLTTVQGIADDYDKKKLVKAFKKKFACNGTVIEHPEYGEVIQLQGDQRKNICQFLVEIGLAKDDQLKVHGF
SP1, P08047, UniProt P08047, whole entry: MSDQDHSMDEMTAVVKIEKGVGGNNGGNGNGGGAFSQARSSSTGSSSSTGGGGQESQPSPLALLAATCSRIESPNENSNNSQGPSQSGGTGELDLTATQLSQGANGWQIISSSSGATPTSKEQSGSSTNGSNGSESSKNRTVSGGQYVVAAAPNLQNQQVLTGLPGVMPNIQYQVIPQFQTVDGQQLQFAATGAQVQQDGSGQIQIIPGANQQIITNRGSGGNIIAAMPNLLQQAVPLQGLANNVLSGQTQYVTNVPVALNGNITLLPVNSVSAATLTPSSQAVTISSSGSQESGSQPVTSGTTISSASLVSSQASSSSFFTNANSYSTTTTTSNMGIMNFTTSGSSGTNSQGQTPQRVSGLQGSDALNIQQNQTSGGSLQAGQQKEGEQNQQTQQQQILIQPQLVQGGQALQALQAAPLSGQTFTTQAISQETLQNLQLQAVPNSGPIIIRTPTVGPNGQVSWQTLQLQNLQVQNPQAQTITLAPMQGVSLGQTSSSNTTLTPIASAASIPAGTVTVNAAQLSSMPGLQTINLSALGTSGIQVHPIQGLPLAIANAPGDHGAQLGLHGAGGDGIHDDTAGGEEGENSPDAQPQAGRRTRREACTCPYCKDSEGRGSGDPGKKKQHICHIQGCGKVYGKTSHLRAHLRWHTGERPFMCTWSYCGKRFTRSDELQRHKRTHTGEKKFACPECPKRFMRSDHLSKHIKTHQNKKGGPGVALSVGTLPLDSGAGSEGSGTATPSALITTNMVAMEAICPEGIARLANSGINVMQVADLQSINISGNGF
CASC3, O15234, UniProt O15234, whole entry: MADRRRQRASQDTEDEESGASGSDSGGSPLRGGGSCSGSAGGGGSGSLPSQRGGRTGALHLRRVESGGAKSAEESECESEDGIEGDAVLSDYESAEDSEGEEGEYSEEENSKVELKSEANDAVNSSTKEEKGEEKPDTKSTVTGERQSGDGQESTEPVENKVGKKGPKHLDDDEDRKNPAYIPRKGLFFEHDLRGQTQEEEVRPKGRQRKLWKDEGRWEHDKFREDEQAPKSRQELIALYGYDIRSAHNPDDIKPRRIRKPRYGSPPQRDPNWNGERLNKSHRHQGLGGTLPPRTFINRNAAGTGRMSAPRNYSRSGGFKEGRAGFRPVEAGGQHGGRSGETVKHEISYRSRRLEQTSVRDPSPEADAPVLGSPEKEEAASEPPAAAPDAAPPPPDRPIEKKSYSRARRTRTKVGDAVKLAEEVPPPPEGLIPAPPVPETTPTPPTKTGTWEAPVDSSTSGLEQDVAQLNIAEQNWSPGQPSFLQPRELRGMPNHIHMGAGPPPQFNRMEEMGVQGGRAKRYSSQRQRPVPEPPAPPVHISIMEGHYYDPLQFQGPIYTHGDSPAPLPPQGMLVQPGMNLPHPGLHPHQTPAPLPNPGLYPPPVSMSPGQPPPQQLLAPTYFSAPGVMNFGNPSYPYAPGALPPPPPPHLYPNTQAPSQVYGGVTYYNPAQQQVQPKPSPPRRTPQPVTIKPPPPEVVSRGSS
TOMM70, O94826, UniProt O94826, whole entry: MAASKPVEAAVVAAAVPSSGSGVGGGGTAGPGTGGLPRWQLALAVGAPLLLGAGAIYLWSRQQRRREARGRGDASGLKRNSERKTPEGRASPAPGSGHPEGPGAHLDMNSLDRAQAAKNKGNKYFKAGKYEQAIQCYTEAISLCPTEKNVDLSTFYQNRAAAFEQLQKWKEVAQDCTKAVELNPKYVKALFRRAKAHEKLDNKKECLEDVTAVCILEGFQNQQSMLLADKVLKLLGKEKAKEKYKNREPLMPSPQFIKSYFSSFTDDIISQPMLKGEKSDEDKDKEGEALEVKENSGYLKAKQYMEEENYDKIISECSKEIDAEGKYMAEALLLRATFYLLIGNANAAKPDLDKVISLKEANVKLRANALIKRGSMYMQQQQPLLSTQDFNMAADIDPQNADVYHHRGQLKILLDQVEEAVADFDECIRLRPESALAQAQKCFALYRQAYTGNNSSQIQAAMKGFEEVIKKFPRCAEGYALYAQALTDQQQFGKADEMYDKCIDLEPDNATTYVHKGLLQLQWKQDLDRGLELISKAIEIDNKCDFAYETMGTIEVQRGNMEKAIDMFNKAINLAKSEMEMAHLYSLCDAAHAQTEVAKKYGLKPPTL

Experiments:
Assay in all cases: PRISMA enrichment of interactor (LFQ) in peptide spot vs all other peptide spots (log2 fold change); higher = stronger / more specific binding of the interactor to the peptide
CCDC47, Q96A33 = target: CCDC47, Q96A33
Method: (§1)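 PRISMA: 15-aa overlapping tiles (offset 8 aa) of 60 microproteins, plus SOS1/GLUT1 control peptides, were spot-synthesized on cellulose membranes in triplicate. Membranes were incubated with benzonase-treated HEK293T lysate, and bound proteins were identified by LC-MS/MS with LFQ. Enrichment is the log2 fold change of each protein in one spot versus all other spots. Only interactors passing the significance cutoff are listed.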

CTCF, P49711 = target: CTCF, P49711
Method: as §1

HACD2, Q6Y1H2 = target: HACD2, Q6Y1H2
Method: as §1

HIST1H1E, P10412 = target: HIST1H1E, P10412
Method: as §1

POP1, Q99575 = target: POP1, Q99575
Method: as §1

CDCA5, Q96FF9 = target: CDCA5, Q96FF9
Method: as §1

CGN, Q9P2M7 = target: CGN, Q9P2M7
Method: as §1

CKS2, P33552 = target: CKS2, P33552
Method: as §1

COPB2, P35606 = target: COPB2, P35606
Method: as §1

DDX42, Q86XP3 = target: DDX42, Q86XP3
Method: as §1

DNAJC8, O75937 = target: DNAJC8, O75937
Method: as §1

EIF1, P41567 = target: EIF1, P41567
Method: as §1

EIF4H, Q15056 = target: EIF4H, Q15056
Method: as §1

FAM98B, Q52LJ0 = target: FAM98B, Q52LJ0
Method: as §1

GOT2, P00505 = target: GOT2, P00505
Method: as §1

HOXD13, P35453 = target: HOXD13, P35453
Method: as §1

MACF1 = target: MACF1
Method: as §1

NSFL1C, Q9UNZ2 = target: NSFL1C, Q9UNZ2
Method: as §1

PAFAH1B3, Q15102 = target: PAFAH1B3, Q15102
Method: as §1

QKI, Q96PU8 = target: QKI, Q96PU8
Method: as §1

RAB8A, P61006 = target: RAB8A, P61006
Method: as §1

SACS, Q9NZJ4 = target: SACS, Q9NZJ4
Method: as §1

SP1, P08047 = target: SP1, P08047
Method: as §1

UQCRFS1, P47985 = target: UQCRFS1, P47985
Method: as §1

DIEXF, Q68CQ4 = target: DIEXF, Q68CQ4
Method: as §1

MBOAT7, Q96N66 = target: MBOAT7, Q96N66
Method: as §1

MON2, Q7Z3U7 = target: MON2, Q7Z3U7
Method: as §1

MRPS15, P82914 = target: MRPS15, P82914
Method: as §1

PA2G4, Q9UQ80 = target: PA2G4, Q9UQ80
Method: as §1

TFAM, Q00059 = target: TFAM, Q00059
Method: as §1

TKFC, Q3LXA3 = target: TKFC, Q3LXA3
Method: as §1

ZNF326, Q5BKZ1 = target: ZNF326, Q5BKZ1
Method: as §1

CASC3, O15234 = target: CASC3, O15234
Method: as §1

NEFM, P07197 = target: NEFM, P07197
Method: as §1

PWP1, Q13610 = target: PWP1, Q13610
Method: as §1

TOMM70, O94826 = target: TOMM70, O94826
Method: as §1

VTA1, Q9NP79 = target: VTA1, Q9NP79
Method: as §1

## TCRKKARILTSSRAF [PALLD]
CCDC47, Q96A33
  PRISMA enrichment of interactor (log2): 5.24
CTCF, P49711
  PRISMA enrichment of interactor (log2): 4.74
HACD2, Q6Y1H2
  PRISMA enrichment of interactor (log2): 4.48
HIST1H1E, P10412
  PRISMA enrichment of interactor (log2): 6.38
POP1, Q99575
  PRISMA enrichment of interactor (log2): 6.94

## GVFIRFLIVLPLDAR [RP11-644F5.11]
CDCA5, Q96FF9
  PRISMA enrichment of interactor (log2): 4.3
CGN, Q9P2M7
  PRISMA enrichment of interactor (log2): 5.48
CKS2, P33552
  PRISMA enrichment of interactor (log2): 4.99
COPB2, P35606
  PRISMA enrichment of interactor (log2): 5.46
DDX42, Q86XP3
  PRISMA enrichment of interactor (log2): 5.63
DNAJC8, O75937
  PRISMA enrichment of interactor (log2): 4.79
EIF1, P41567
  PRISMA enrichment of interactor (log2): 5.89
EIF4H, Q15056
  PRISMA enrichment of interactor (log2): 4.72
FAM98B, Q52LJ0
  PRISMA enrichment of interactor (log2): 6.88
GOT2, P00505
  PRISMA enrichment of interactor (log2): 12.7
HOXD13, P35453
  PRISMA enrichment of interactor (log2): 4.06
MACF1
  PRISMA enrichment of interactor (log2): 5.78
NSFL1C, Q9UNZ2
  PRISMA enrichment of interactor (log2): 6.63
PAFAH1B3, Q15102
  PRISMA enrichment of interactor (log2): 5.58
QKI, Q96PU8
  PRISMA enrichment of interactor (log2): 4.46
RAB8A, P61006
  PRISMA enrichment of interactor (log2): 4.87
SACS, Q9NZJ4
  PRISMA enrichment of interactor (log2): 4.09
SP1, P08047
  PRISMA enrichment of interactor (log2): 4.03
UQCRFS1, P47985
  PRISMA enrichment of interactor (log2): 5.3

## GRMRIATEVLKSKPN [GAS5]
CCDC47, Q96A33
  PRISMA enrichment of interactor (log2): 6.1
DIEXF, Q68CQ4
  PRISMA enrichment of interactor (log2): 4.28
MBOAT7, Q96N66
  PRISMA enrichment of interactor (log2): 4.32
MON2, Q7Z3U7
  PRISMA enrichment of interactor (log2): 5.98
MRPS15, P82914
  PRISMA enrichment of interactor (log2): 9.62
PA2G4, Q9UQ80
  PRISMA enrichment of interactor (log2): 5.05
TFAM, Q00059
  PRISMA enrichment of interactor (log2): 4.83
TKFC, Q3LXA3
  PRISMA enrichment of interactor (log2): 4.74
ZNF326, Q5BKZ1
  PRISMA enrichment of interactor (log2): 5.81

## SEAGTGFCFNTKRNR [MRPL33]
CASC3, O15234
  PRISMA enrichment of interactor (log2): 6.64
MACF1
  PRISMA enrichment of interactor (log2): 6
NEFM, P07197
  PRISMA enrichment of interactor (log2): 5.06
PWP1, Q13610
  PRISMA enrichment of interactor (log2): 5.38
TOMM70, O94826
  PRISMA enrichment of interactor (log2): 7.52
VTA1, Q9NP79
  PRISMA enrichment of interactor (log2): 6.89
